According to patent publication US10214502B2, “Method of inhibiting apolipoprotein-E expression while increasing expression of at least one of LDL-receptor protein or AbcA1 protein comprising administering a small compound” (California State University, Fresno, priority 2016, dated 2019):
Some entries share one result that the patent states for a list of compounds.

Test system: apoE3
Test: ELISA of apoE3 levels in conditioned media of compound-treated mouse cortical astrocyte cells
Type: cell-based
Conditions: 10 μM, 24 hrs
Protocol: ApoE inhibition can be readily determined by any one of several assays and techniques known to those of ordinary skill in the art, including the enzyme-linked immunosorbant assay (ELISA). In the experimental results shown in Table 2 and FIG. 5, the ELISA assay was carried out on cortical astrocyte cells from mice. Astrocyte cells produce apoE, LDLR and AbcA1 proteins.
The experiments involved treating mouse cortical astrocyte cells with the claimed compounds at 10 μM concentration for an incubation time of 24 hrs. DMSO solvent was used as a negative control, because the compounds were dissolved in DMSO when applied to the cells.
The ELISA technique involves immobilizing an apoE-specific capture antibody to a 96-well plate, addition of sample (conditioned medium from mouse cortical astrocyte cells treated with the compound for 24 hours), and detection of the bound apoE using a second apoE-specific biotinylated antibody and streptavidin-HRP.
The Mabtech ELISA kit detects the presence of the three apoE isoforms: apoE2, apoE3, and apoE4.
To obtain the data shown in Table 2 and FIG. 5, the mouse cortical astrocyte cells were maintained in DMEM medium (Invitrogen) supplemented with 10 mM HEPES, 1 mM sodium pyruvate, 4.5 g/L glucose, 1% penicillin/streptomycin, and 10% fetal bovine growth serum (Invitrogen) at 37° C., with 5% CO2.
The cells (6×10^4 cells/24-well plate) were grown for 1 day in RPMI, followed by a 24 hour equilibration in serum-free Opti-MEM (Life Technologies). Treatments were carried out in triplicate with […] of fresh Opti-MEM containing 10 μM of compound or vehicle (0.1% DMSO) for 24 hours. […] ApoE concentration in the sample was calculated based on a standard curve derived using known amounts of purified apoE (from Biodesign).
The protein levels in the cells in the 24-well plates were measured using BCA Protein Assay Kit (from Pierce) and used to normalize the data. […] Sample apoE3 concentrations were represented relative to the DMSO treated cells.
The bars in FIG. 5 reflect the respective mean level apoE3 in the media for each compound with an indication of one […].

Row | Compound | apoE (apoE3) expression compared to the control DMSO, in words | decrease of apoE3 expression (apoE3 levels in the media) compared to the control DMSO
1 | CCN(CC)S(=O)(=O)c1ccc2ccccc2c1 [Compound 129] | decrease | at least 18%
2 | O=S(=O)(c1ccc2ccccc2c1)N1CCOCC1 [Compound 95] | decrease | 
3 | CC(NS(=O)(=O)c1ccc2ccccc2c1)c1ccccc1 (stereo not shown) [Compound 131] | decrease | at least 10%
4 | CCC(C)NS(=O)(=O)c1ccc(-c2ccccc2)cc1 (stereo not shown) [Compound 132] | decrease | at least 10%
5 | O=C(Nc1ccc(Br)cc1)c1ccc2ccccc2c1 [Compound 101] | decrease | 
6 | CC(NS(=O)(=O)c1ccc(-c2ccccc2)cc1)c1ccccc1 (stereo not shown) [Compound 137] | decrease | at least 10%
7 | O=S(=O)(NC1CCCCC1)c1ccc(-c2ccccc2)cc1 [Compound 136] | decrease | at least 10%
8 | O=S(=O)(Nc1ccccc1)c1ccc2ccccc2c1 [Compound 102] | decrease | 
9 | O=S(=O)(c1ccc(-c2ccccc2)cc1)N1CCOCC1 [Compound 134] | decrease | at least 10%
10 | O=S(=O)(c1cccc2ccccc12)N1CCCC1 [Compound 123] | decrease | 
11 | CC(C)CNS(=O)(=O)c1ccc(-c2ccccc2)cc1 [Compound 133] | decrease | at least 10%
12 | CC(C)N(C(C)C)S(=O)(=O)c1ccc2ccccc2c1 [Compound 130] | decrease | at least 10%
13 | O=C(c1ccc2ccccc2c1)N1CCOCC1 [Compound 90] | decrease | 
14 | CCCCN(CCCC)S(=O)(=O)c1ccc2ccccc2c1 [Compound 128] | decrease | at least 10%
15 | CCCCN(CCCC)S(=O)(=O)c1cccc2ccccc12 [Compound 127, naphthalene-1-sulfonic acid dibutylamide] | decrease | at least 10%
16 | c1ccc2cc(CN3CCCCC3)ccc2c1 [Compound 141] | decrease | at least 10%
17 | O=S(=O)(NCc1ccccc1)c1cccc2ccccc12 [Compound 125] | decrease | at least 10%
18 | O=S(=O)(NC1CCCCC1)c1cccc2ccccc12 [Compound 124] | decrease | 
19 | CCC(C)NS(=O)(=O)c1cccc2ccccc12 (stereo not shown) [Compound 120] | decrease | at least 10%
20 | O=S(=O)(c1ccc2ccccc2c1)N1CCCCC1 [Compound 97] | decrease | at least 10%
21 | CCCCN(CCCC)Cc1ccc2ccccc2c1 [Compound 139] | decrease | 
22 | O=C(Nc1ccccc1)c1ccc2ccccc2c1 [Compound 98] | decrease | 
23 | O=S(=O)(c1cccc2ccccc12)N1CCCCC1 [Compound 122] | decrease | 
24 | CCN(CC)S(=O)(=O)c1cccc2ccccc12 [Compound 126] | decrease | at least 10%
25 | COc1cccc(NC(=O)c2ccc3ccccc3c2)c1 [Compound 100] | decrease | at least 10%
26 | CCN(CC)Cc1ccc2ccccc2c1 [Compound 140] | decrease | 

Same assay, conditions: 10 μM, 24 hrs, listed as compound 129

Row | Compound | decrease of apoE3 expression (apoE3 levels in the media) compared to the control DMSO
27 | CCN(CC)S(=O)(=O)c1ccc2ccccc2c1 [Compound 129] | at least 10%
